The values are deposited in ChEMBL (CHEMBL3988442, “University of Dundee, Small-Polar-MMV Screening Library” (2021)).

The chains behind the UniProt entries cited, without tags or fusion partners.
UniProt E9BF75, entry or part of it: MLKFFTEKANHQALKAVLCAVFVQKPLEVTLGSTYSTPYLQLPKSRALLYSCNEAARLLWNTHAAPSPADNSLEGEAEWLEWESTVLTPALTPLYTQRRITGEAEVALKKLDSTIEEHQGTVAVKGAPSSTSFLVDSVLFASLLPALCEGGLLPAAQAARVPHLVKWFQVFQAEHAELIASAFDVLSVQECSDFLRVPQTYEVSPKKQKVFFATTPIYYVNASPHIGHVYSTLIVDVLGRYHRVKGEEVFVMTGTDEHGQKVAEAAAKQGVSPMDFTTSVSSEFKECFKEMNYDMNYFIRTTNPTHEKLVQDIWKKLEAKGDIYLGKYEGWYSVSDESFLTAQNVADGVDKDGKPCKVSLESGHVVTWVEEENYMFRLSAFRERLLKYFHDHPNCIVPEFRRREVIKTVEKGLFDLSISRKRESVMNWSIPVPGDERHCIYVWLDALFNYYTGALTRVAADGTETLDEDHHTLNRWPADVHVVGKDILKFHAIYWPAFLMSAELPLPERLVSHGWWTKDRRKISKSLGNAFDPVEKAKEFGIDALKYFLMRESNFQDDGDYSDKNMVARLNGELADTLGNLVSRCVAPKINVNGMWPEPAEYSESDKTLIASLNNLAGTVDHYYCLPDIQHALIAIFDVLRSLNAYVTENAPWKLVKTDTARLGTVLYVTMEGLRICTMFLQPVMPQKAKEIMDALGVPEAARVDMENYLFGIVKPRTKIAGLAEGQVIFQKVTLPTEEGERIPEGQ

A: 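Primary screen of methionyl-tRNA synthetase; the read-out is not stated. Target: Methionyl-tRNA synthetase (putative), Leishmania donovani (UniProt E9BF75). The test concentration is not given. The values are filed as inhibition. Of about 68,000 compounds tested this way, about 24 (0.035%) reached 50% or more in at least one test.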
B: 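Assay on Mycobacterium tuberculosis, filed only as a heat shock assay from Cornell; the read-out is not stated. The concentration is filed as 10 mM, unlikely as a test dose, so the dose is not known. Higher reads as stronger inhibition (inferred: compounds with an IC50 in retests scored well above the rest). Of about 69,000 compounds tested this way, about 930 (1.4%) reached 50% or more in at least one test.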

All values are in %.
How 0% and 100% were set is not recorded. Most values in the screen are low, and negative values occur.
This is an unselected part of the compounds tested.
A dash means the value is not listed here; it may have been measured.

compound	A	B
CNc1ccc(C2CN(c3cc(C)nc(N)n3)CCO2)nc1 (stereo unspecified)	10.47	-1.035
NCC1CCCCN1C(=O)Cc1cccc(Cl)c1 (stereo unspecified)	16.48	-
CN(C)CC1CSCCCN1S(=O)(=O)c1ccc(C(F)(F)F)cc1 (stereo unspecified)	12.23	-10.59
O=C(O)C(F)(F)F.c1coc(CN2CCc3nnc(COc4cncnc4)n3CC2)c1	-	-17.41
COCCOc1ccnc(-c2noc([C@@H]3CCCN3CC(C)C)n2)c1	2.373	-18.35
Cc1oncc1C(=O)NCc1cc(=O)n2c(n1)CN(CC(C)C)CCC2	10	-
CN(CC(=O)NCC(C)(C)c1ccc2c(c1)OCO2)c1cnccn1	10.87	-7.656
Cn1ncc2c(N3CC[C@H](O)C3)nc(-c3ccncc3)nc21	15.6	0.3575
O=C(c1ccc2c(c1)CCO2)N1CCN(c2cnccn2)CC1	20.11	-1.384
[H][C@@]12CN(C(=O)Nc3ccc(F)cc3)C[C@]1([H])OCC(=O)N2C	-	-1.88
O=C(c1ccncc1)N1CCCn2c(CN3CCCCC3)nnc2C1	16.38	-197.4
COc1cccc(CN2CCC(Cc3cnc(CN(C)C)cn3)CC2)c1	11.75	-21.42
COC(=O)c1cccc(C(=O)N2CCN(C(=O)N(C)C)CC2(C)C)c1	3.881	1.471
O=C(O)C(F)(F)F.O=C(c1ccccc1)N1CCCn2c(CN3CCCCC3)nnc2C1	-	-12.14
C1CC(CN2C[C@@H]3C[C@@H](c4nnc(C5CC5)o4)O[C@@H]3C2)CCO1	14.52	-
CCn1cc2c(n1)CN(Cc1ccncc1)CC2COCC1CC1 (stereo unspecified)	17.07	-
CC1(C)CC(N(Cc2ccccc2)Cc2ncc[nH]2)CC(C)(C)N1	14.95	-
Cc1nc(N2CCCC2)ncc1-c1cc(O)nc(NCC2CCCO2)n1 (stereo unspecified)	0.7538	2.186
Cc1cccc(CN2C[C@@H](CN3CCCN(C)CC3)C[C@H](CO)C2)n1	9.574	-8.443
O=S(=O)(C1CC1)N1CCc2c(CN3CCOCC3)cncc2C1	9.29	42.1
Cc1ccc(C(C)(O)CNC(=O)c2sccc2OC(F)F)o1 (stereo unspecified)	13.12	24.64
CN(CCCOc1ccccc1Cl)C(=O)CN1C(=O)CCNC1=O	13.73	2.154
CC(C)CNC(=O)c1ccc2c(=O)n(-c3ccccc3)cnc2c1	0.9639	18.18
Cn1nnc2c1C(COCC1CC1)CN(C(=O)Cc1ccsc1)C2 (stereo unspecified)	19.61	3.968
CC(C)CCC(=O)N1CCN(C(=O)c2ccc(-n3cccn3)cc2)CC1	10.2	-9.976
Cc1cc(C)n(CC2CCCN2CC(=O)N(C)C)n1 (stereo unspecified)	14.38	7.215
O=C(O)C(F)(F)F.[H][C@@]12CCN(Cc3ccccc3)C[C@@]1([H])O[C@H](C(=O)NC1CC1)C2	-	4.11
Cc1cccc(CN2C[C@@H]3CN(C(=O)[C@H]4CCCO4)C[C@@H]3C2=O)c1	13.13	-
Cc1cc(C(C)NC(=O)c2cnc3onc(C)c3c2)c(C)o1 (stereo unspecified)	12.03	-20.76
CCS(=O)(=O)N1CCC2(CC1)CC[C@@]1(C(=O)N(C)C)CN(C)C[C@@H]21	3.833	-
Cc1cc(NC(=O)N2CCN(C)CC2C)n(C(C)(C)C)n1 (stereo unspecified)	13.04	-8.315
Cc1c(C2NC3(CCCC3)C(=O)N2CC2CC2)cc(C#N)n1C (stereo unspecified)	22.93	-4.334
CCCn1nc2c(cc1=O)CN(CC(=O)Nc1ccncc1)CC2	10.1	6.575
[H][C@@]12OCCN(C(=O)C3CCOCC3)[C@@]1([H])CC[C@@H]2OCc1ccncc1	-	10.11
CC(NC(=O)Nc1ccc(OC2CCCC2)cc1)c1nc[nH]n1 (stereo unspecified)	0.7117	-11.61
CC(=O)CCCC(=O)N(Cc1ccsc1)CC(C)C	10	-34.91
O=C(O)C(F)(F)F.[H][C@@]12CN(C(=O)[C@H]3CCCO3)C[C@]1([H])C(=O)N(Cc1csc(C)n1)C2	-	-1.548
CN(Cc1ccco1)C(=O)Nc1cc(C(F)(F)F)c[nH]c1=O	19.43	-2.535
c1cncc(CN2CCO[C@@H]3CN(Cc4ccoc4)CC[C@@H]3C2)c1	17.46	-
O=C(O)C(F)(F)F.c1cc(CN2Cc3nnn(CC4CC4)c3C(COCC3CC3)C2)co1 (stereo unspecified)	-	7.227
O=C(O)C(F)(F)F.[H][C@@]12CN(CC(C)C)C[C@]1([H])C(=O)N(CC)C21CCN(S(C)(=O)=O)CC1	-	19.6
COc1ccc(CCNCc2c(C)nn(C)c2N(C)C)cc1OC	19.33	-
O=C(O)[C@@H]1CN(C(=O)CSCCN2CCCC2)C[C@H]1c1ccccc1	14.38	-6.7
O=C(c1ccccn1)N1CCc2ncc(Cn3cccn3)n2CC1	12.88	-
CC(C1CC1)N(C)C(=O)c1cnc(-c2ccc3c(c2)OCO3)s1 (stereo unspecified)	-0.4926	12.15
O=C1NCCN1C1CCN(Cc2nc(-c3ccsc3)no2)CC1	23.08	-13.91
O=C(NCCNc1ncccn1)N(Cc1ccc(F)cc1F)C1CC1	9.859	12.14
CN(C)C(=O)C(C)(C)c1ccc2c(c1)OCCO2	14.44	16.82
O=C(O)C(F)(F)F.[H][C@@]12CCN(Cc3ccc(F)cc3)C[C@]1(C(=O)N1CCCO1)CCO2	-	-15.72
N#Cc1cccc(OCC(=O)N(Cc2ccsc2)C2CC2)c1	14.95	-40.75
CC(=O)N1CCCC2(CN(Cc3ccc(F)cc3)CCO2)C1 (stereo unspecified)	14.81	-
CCN(CC1CCOC1)C(=O)c1cc(F)ccc1N1CCN(C)CC1 (stereo unspecified)	1.397	-27.86
Cc1cc2nc(C(C)C)cc(N(C)CC3CCN(C(C)C)C3)n2n1 (stereo unspecified)	11.17	8.87
CC(C)Cc1cc(NC(=O)c2ccccc2F)n(C)n1	15.1	12.08
CN(C)CCCNC(=O)c1nnsc1-c1ccccc1	10.48	-27.1
CN(CCc1ccc(F)cc1)Cc1nc2c(cnn2C)c(=O)[nH]1	13.39	-9.195
[H][C@@]12C[C@H](C(=O)NCC3CC3)[C@@]([H])(CN(C(=O)NCC3CCCCC3)C1)O2	-	-17.6
CC(C)NC(=O)N1CCCCCC1C1CCN(c2ncccn2)CC1 (stereo unspecified)	3.951	-3.08
CCOC(=O)N1CCN(c2nc(NC)c3ccccc3n2)CC1	10.37	20.3
CCNC(=O)N(Cc1ccoc1)C1CCCCC1	5.541	11.01
Cc1ccc(NC(=O)NC(C)Cn2cccn2)cc1 (stereo unspecified)	14.61	0.5452
[H][C@]12CC[C@]([H])(CN(Cc3ccccc3SC)C1)N(CC1CC1)C2=O	-	-12.89
COc1cccc(OCC2CCCN(C(=O)CCc3cc(O)no3)C2)c1 (stereo unspecified)	8.065	-12.18
Cc1ccc(CNC(=O)C2CCN(C(=O)C(C)C)CC2)n1C	9.218	-13.66
COc1ccc(NC(=O)CCNc2ncccn2)cn1	10	12.19
Cc1ccc(CN2CCC3(CC(=O)N(c4cccc(F)c4)C3)C2)o1 (stereo unspecified)	7.904	-
O=C(O)C(F)(F)F.[H][C@@]12COC[C@@H](CC(=O)N3CCOCC3)[C@]1([H])CN(Cc1ccc(C)s1)C2	-	-30.94
COc1cc(C)nc(N2CCN(C(=O)c3cc(C)no3)CC2)n1	5.828	-18.45
COc1cccc(Cc2nnc(SCCS(C)(=O)=O)o2)c1	4.244	-32.62
O=C(O)C(F)(F)F.[H][C@@]12CN(Cc3ccccn3)C[C@]1([H])CN(c1cc(OC)ncn1)C2	-	3.691
CC(C)CO[C@@H]1CC[C@H]2[C@H]1OCCN2S(=O)(=O)C1CC1	7.397	-
CN(C)c1ccc2c(c1)CN(C(=O)c1ccnnc1)C2c1cnco1 (stereo unspecified)	8.696	-15.44
CCC(CN1CCCC1)n1cncc1-c1cnn(-c2ccc(F)cc2)c1.Cl (stereo unspecified)	-	-4.489
Cc1ccccc1C1(C(=O)NCCN2CCCC2)CCOCC1	9.804	-0.1009
Cc1ccc(CN2CCC[C@@H]3CN(C(=O)c4ccco4)C[C@@H]32)o1	9.444	-
Cn1cc2c(n1)C(CNCc1ccco1)OCC2 (stereo unspecified)	-0.5076	-
c1cc(C2CCCN2CC2CCCCC2)n[nH]1 (stereo unspecified)	29.75	-8.257
O=C(CC1CCCC1)NCCNCc1cccc2c1OCCO2	22.05	-159.2
CN(C)C(=O)CNC(=O)c1cc2c(s1)CCN2S(C)(=O)=O	13.97	-34.08
Cc1ccc2oc([C@H]3CCN(Cc4ccccc4)C3)nc2c1	3.759	-12.64
CCC(C)N(Cc1ccncc1)C(=O)CCSC (stereo unspecified)	17	12.25
CC(C)CCNC(=O)c1c(-n2cnnn2)sc2c1CCCC2	4.533	-6.977
CCc1ccc2nc(-c3cnn(C)c3)cc(C(=O)N3CCCC3)c2c1	11.92	-29.54

Once more, the final 7:

compound,A,B
c1cc(C2CCCN2CC2CCCCC2)n[nH]1 (stereo unspecified),29.75,-8.257
O=C(CC1CCCC1)NCCNCc1cccc2c1OCCO2,22.05,-159.2
CN(C)C(=O)CNC(=O)c1cc2c(s1)CCN2S(C)(=O)=O,13.97,-34.08
Cc1ccc2oc([C@H]3CCN(Cc4ccccc4)C3)nc2c1,3.759,-12.64
CCC(C)N(Cc1ccncc1)C(=O)CCSC (stereo unspecified),17,12.25
CC(C)CCNC(=O)c1c(-n2cnnn2)sc2c1CCCC2,4.533,-6.977
CCc1ccc2nc(-c3cnn(C)c3)cc(C(=O)N3CCCC3)c2c1,11.92,-29.54